Experimental data as given in patent US20250249113A1 (Debiopharm Research & Manufacturing S.A., priority 2022, published 2025).

Experiment: general procedure: hybrid (solid and solution phase) peptide synthesis; 2-CTC resin; Fmoc-Xxx-Wang resin (loading 0.60 mmol/g; Bachem); diisopropyl carbodiimide/HOBT
Details: TFA salt; for purity (crude or final not stated): whole synthesis
[1] = conjugation step, UV purity (UPLC-MS)
[2] = late stage modification step, UV purity (UPLC-MS)
[3] = coupling step, UV purity (UPLC-MS)

DM1-Mal-Phe-Cit-Lys(PEG4-Mal-Cys-Ac)-Phe-OH
purity (crude or final not stated) (UV purity (UPLC-MS)): 97%

AF-Arg-Lys(PEG4-Mal-Cys-Ac)-Phe-OH
purity (crude or final not stated) (UV purity (UPLC-MS)): 94%

DM1-Ac-Cit-Lys(D-Arg-ma)-Tyr-OH
conjugation yield (conjugation step): 18% | final HPLC purity [1]: 88% UV purity

Exatecan-Suc-Phe-Cit-Lys-Tyr(OtBu)-OtBu
step yield (late stage modification step): 13% | final HPLC purity [2]: 97% UV purity

Fmoc-Phe-Cit-Lys(Mtt)-Tyr(OtBu)-OtBu
step yield (coupling step): 92% | final HPLC purity [3]: 96% UV purity

Boc-Cit-Lys(D-Arg(Pbf)-ma)-Tyr-OH
step yield (late stage modification step): 29% | final HPLC purity [2]: 88% UV purity

Exatecan-Suc-Phe-Cit-Lys(Mtt)-Tyr(OtBu)-OtBu
conjugation yield (conjugation step): 46% | final HPLC purity [1]: 98% UV purity

DM1-Mal-Phe-Lys-Lys(PEG4-Mal-Cys-Ac)-Phe-OH
purity (crude or final not stated) (UV purity (UPLC-MS)): 98%

H-Cit-Lys(D-Arg-ma)-Tyr-OH
step yield (late stage modification step): 69% | crude HPLC purity [2]: 90% UV purity

H-Phe-Cit-Lys(Mtt)-Tyr(OtBu)-OtBu
step yield (late stage modification step): 81% | final HPLC purity [2]: 95% UV purity

DM1-Mal-Phe-Cit-Phe-Lys(PEG4-Mal-Cys-Ac)-OH
purity (crude or final not stated) (UV purity (UPLC-MS)): 94%

AF-Arg-Phe-Lys(PEG4-Mal)-OH
purity (crude or final not stated) (UV purity (UPLC-MS)): 98%

Boc-Cit-Lys(D-Arg(Pbf))-Tyr-OH
step yield (late stage modification step): 46% | final HPLC purity [2]: 90% UV purity

AF-Arg-Phe-Lys(PEG4-Mal-Cys-Ac)-OH
purity (crude or final not stated) (UV purity (UPLC-MS)): 90%

Boc-Cit-Lys(Fmoc-D-Arg(Pbf))-Tyr-OMe
step yield (coupling step): 73% | final HPLC purity [3]: 95% UV purity

AF-Arg-Lys(PEG4-Mal)-Phe-OH
purity (crude or final not stated) (UV purity (UPLC-MS)): 96%
